# Test results taken from patent US7423054B2, “Therapeutic pyrazolo[3,4-b]pyridines and indazoles” (Warner Lambert Company LLC, priority 2004, dated 2008).
# Where “and” joins values, the source holds several entries; their conditions need not be identical. Identical values can stand only once. At least one read-out could not be matched to a standard name with certainty.
# System: capsaicin-induced mechanical allodynia
# Assay: Rat model of capsaicin-induced mechanical allodynia (paw withdrawal threshold, Von Frey)
# Type: in vivo
# Settings: male Sprague-Dawley rats, oral single dose 10 mg/kg, contralateral PWT at 2 hours after dose, mean of eight animals, hydrochloride
# Protocol: In certain embodiments, the compounds of formula I may be assayed for their ability to alleviate capsaicin-induced mechanical allodynia in a rat (e.g., Sluka, K A, (2002) J of Neuroscience, 22(13): 5687-5693). For example, a rat model of capsaicin-induced mechanical allodynia) can be carried out as follows:
# On day 0, male Sprague-Dawley rats (˜150 g) in the dark cycle are placed in suspended wire-bottom cages and allowed to acclimate for 0.5 h in a darkened, quiet room. The day 0 paw withdrawal threshold (PWT) is determined on the left hind paw by Von Frey hair assessment using the Dixon up and down method. After assessment, the plantar muscle of the right hind paw is injected with 100 μl capsaicin (0.25% in 10% ethanol, 10% Tween 80, in sterile saline). On day 6 the PWT of the left hindpaw (contralateral from injection site) is determined for each animal. Animals from the day 6 prereads with PWT≦11.7 g are considered allodynic responders and are regrouped so that each cage had similar mean PWT values. On day 7, responders are dosed (e.g., orally, intraperitoneally, and subcutaneously, etc.) with 10 ml/kg vehicle (0.5% HPMC(hydroxy-propylmethylcellulose)/0.2% Tween™ 80), or vehicle plus compound. The contralateral PWT values are determined at 2 hours (or at about the time corresponding to the estimated Cmax) after the single dose, with the investigator blinded to the dosing scheme. Those of skill in the art can determine the appropriate time to determine the contralateral PWT value (e.g., 1 hour, 2 hours, etc.).
# For each animal, the day 6 PWT value is subtracted from the 2 hour PWT value to give a delta PWT value that represents the change in PWT due to the 2 hour drug treatment. In addition, the day 6 PWT is subtracted from the day 0 PWT to give the baseline window of allodynia present in each animal. To determine % inhibition of allodynia of each animal normalized for vehicle controls, the following formula is used: % Inhibition of Allodynia=100×(Delta PWT(drug)−mean Delta PWT(vehicle))/(Baseline−mean Delta PWT(vehicle)). Pharmaceutically Acceptable Salts and Solvates […]
# On day 0, male Sprague-Dawley rats (˜150 g) in the dark cycle were placed in suspended wire-bottom cages and allowed to acclimate for 0.5 hour in a darkened, quiet room. The day 0 paw withdrawal threshold (PWT) was determined on the left hind paw by Von Frey hair assessment using the Dixon up and down method. […] On day 6 the PWT of the left hindpaw (contralateral from injection site) was determined for each animal. […]
# For the animals dosed with the compound of Example 7, the contralateral PWT values were determined at 2 hour after the single dose, with the investigator blinded to the dosing scheme. […]
row,SMILES,% inhibition +/− SEM
1,"Cl.Fc1ccc(F)c(-n2nc(OCC3CCCNC3)c3ccccc32)c1 (racemic) [Example 31, (±)-1-(2,5-Difluoro-phenyl)-3-(piperidin-3-ylmethoxy)-1H-indazole hydrochloride]",46.7 +/− 13.2%
2,"Cl.Fc1ccc2c(c1)c(OCC1CCCNC1)nn2-c1ccccc1F (racemic) [Example 57, (±)-5-Fluoro-1-(2-fluoro-phenyl)-3-(piperidin-3-ylmethoxy)-1H-indazole hydrochloride]",25.7 +/− 22.8%
3,"Cl.c1ccc(-n2nc(OC3CCNCC3)c3ccccc32)cc1 [Example 20, 1-Phenyl-3-(piperidin-4-yloxy)-1H-indazole hydrochloride]",27.3 +/− 6.3% and 27.5 +/− 10.4%
4,"Cl.Fc1ccc(F)c(-n2nc(OC[C@@H]3CCNC3)c3ccccc32)c1 [Example 30, (R)-1-(2,5-Difluoro-phenyl)-3-(pyrrolidin-3-ylmethoxy)-1H-indazole hydrochloride]",67.7 +/− 13.5%
